Assay: Remote active loading of prodrug into premade small unilamellar vesicles (transmembrane ammonium sulfate gradient)
Conditions: underivatized drug

Compound | localization in the liposome
CC[C@@]1(O)C(=O)OCc2c1cc1n(c2=O)Cc2c-1nc1ccc(O)cc1c2[Si](C)(C)C(C)(C)C [DB-67] | localize predominantly in the bilayer compartment of the liposome
Camptothecin | localize predominantly in the bilayer compartment of the liposome
